Taken from: PubChem BioAssay AID1259405 (NCATS, 2018)
Here is a random part of about 50,000 reagents tested. About 4,000 of them (8%) were called active. 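Mouse siRNA library applied to hamster cells; one well for each siRNA.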 The numbers tell different reagents against one gene apart.

Assay: 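Mouse-designed siRNAs used to find CHO productivity engineering targets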 (primary screen)
System: Chinese hamster CHO-K1 ovary cells with stable secreted eGFP expression
Knock-down reagent: single siRNA against mouse genes, 0.8 pmol siRNA per well (2 µl of 400 nM stock)
Time to read-out: 3 days
Read-out: 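Percent of the per-plate non-targeting control median for intracellular GFP per well by laser scanning cytometry and for cell viability by ATP luminescence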
Scale: GFP, % of control: higher = more GFP per well, higher productivity; viability (ATP), % of control: higher = more viable cells (more ATP)
Hit rule: 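a knock-down is called active if GFP reaches 120% or more of non-targeting control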

1700020N01Rik (GeneID 67692) #1 showed GFP, % of control 63.4; viability (ATP), % of control 54.5; inactive.
1700020N01Rik (GeneID 67692) #2 scored GFP, % of control 55.5; viability (ATP), % of control 63.5; inactive.
1700020N01Rik (GeneID 67692) #3 showed GFP, % of control 95.6; viability (ATP), % of control 90.3; inactive.
For Mospd3 (GeneID 68929) #1, the values are GFP, % of control 37.2; viability (ATP), % of control 32.5; inactive.
Depletion of Mospd3 (GeneID 68929) #2 resulted in: GFP, % of control 74.3; viability (ATP), % of control 56.5; inactive.
Against Mospd3 (GeneID 68929) #3, the entry reads GFP, % of control 45.8; viability (ATP), % of control 32.7; inactive.
After knock-down of Nr2e3 (GeneID 23958) #1 the results were GFP, % of control 131; viability (ATP), % of control 69.5; active.
Depletion of Nr2e3 (GeneID 23958) #2 resulted in: GFP, % of control 65.7; viability (ATP), % of control 73.9; inactive.
Knock-down of Nr2e3 (GeneID 23958) #3 gave: GFP, % of control 53.3; viability (ATP), % of control 43.7; inactive.
After knock-down of Dlg4 (GeneID 13385) #1 the results were GFP, % of control 87.4; viability (ATP), % of control 101; inactive.
Depletion of Dlg4 (GeneID 13385) #2 resulted in: GFP, % of control 114; viability (ATP), % of control 80.7; inactive.
After knock-down of 4930474M22Rik (GeneID 74917) #1, the record shows GFP, % of control 124; viability (ATP), % of control 101; active.
After knock-down of 4930474M22Rik (GeneID 74917) #2, the screen gave GFP, % of control 152; viability (ATP), % of control 87.3; active.
4930474M22Rik (GeneID 74917) #3 scored GFP, % of control 98.9; viability (ATP), % of control 106; inactive.
For Spag4 (GeneID 245865) #1, the values are GFP, % of control 31.4; viability (ATP), % of control 34.2; inactive.
With knock-down of Spag4 (GeneID 245865) #2 the results were GFP, % of control 35.8; viability (ATP), % of control 43.1; inactive.
With knock-down of Spag4 (GeneID 245865) #3, the screen gave GFP, % of control 63.9; viability (ATP), % of control 59; inactive.
Silencing of Efcab6 (GeneID 77627) #1 resulted in: GFP, % of control 30; viability (ATP), % of control 48.3; inactive.
Knock-down of Efcab6 (GeneID 77627) #2 came out at: GFP, % of control 28.6; viability (ATP), % of control 38.6; inactive.
Depletion of Efcab6 (GeneID 77627) #3 came out at: GFP, % of control 113; viability (ATP), % of control 122; inactive.
Knock-down of Ftl2-ps (GeneID 14337) #1 resulted in: GFP, % of control 55.2; viability (ATP), % of control 74.2; inactive.
With knock-down of Ftl2-ps (GeneID 14337) #2, the record shows GFP, % of control 43.1; viability (ATP), % of control 66.8; inactive.
Against Ftl2-ps (GeneID 14337) #3 the deposit lists GFP, % of control 80.7; viability (ATP), % of control 92.7; inactive.
Knock-down of Inka1 (GeneID 68176) #1 resulted in: GFP, % of control 58.9; viability (ATP), % of control 62.8; inactive.
Against Inka1 (GeneID 68176) #2, the entry reads GFP, % of control 85.8; viability (ATP), % of control 85.1; inactive.
For Inka1 (GeneID 68176) #3, the entry reads GFP, % of control 73.1; viability (ATP), % of control 105; inactive.
Silencing of Degs1 (GeneID 13244) #1 resulted in: GFP, % of control 79; viability (ATP), % of control 81.5; inactive.
Degs1 (GeneID 13244) #2 gave GFP, % of control 65.5; viability (ATP), % of control 45.2; inactive.
Against Degs1 (GeneID 13244) #3, the values are GFP, % of control 48.5; viability (ATP), % of control 47.3; inactive.

Active calls, among the entries above:
Nr2e3 (GeneID 23958) #1 | GFP, % of control: 131; viability (ATP), % of control: 69.5; Call: active
4930474M22Rik (GeneID 74917) #1 | GFP, % of control: 124; viability (ATP), % of control: 101; Call: active
4930474M22Rik (GeneID 74917) #2 | GFP, % of control: 152; viability (ATP), % of control: 87.3; Call: active
